Drug screen on melanoma cell lines: apoptosis marker

Drug key:
nutlin-3: COc1ccc(C2=N[C@@H](c3ccc(Cl)cc3)[C@@H](c3ccc(Cl)cc3)N2C(=O)N2CCNC(=O)C2)c(OC(C)C)c1 at 0.5 µM
PLX4720: CCCS(=O)(=O)Nc1ccc(F)c(C(=O)c2c[nH]c3ncc(Cl)cc23)c1F at 0.4 µM
VX-702: NC(=O)c1ccc(N(C(N)=O)c2c(F)cccc2F)nc1-c1ccc(F)cc1F at 2 µM
lenalidomide: Nc1cccc2c1CN(C1CCC(=O)NC1=O)C2=O (stereo unspecified) at 5 µM
XAV939: Oc1nc(-c2ccc(C(F)(F)F)cc2)nc2c1CSCC2 at 10 µM
tipifarnib: Cn1cncc1[C@@](N)(c1ccc(Cl)cc1)c1ccc2c(c1)c(-c1cccc(Cl)c1)cc(=O)n2C at 0.05 µM
PF-562271: CN(c1ncccc1CNc1nc(Nc2ccc3c(c2)CC(=O)N3)ncc1C(F)(F)F)S(C)(=O)=O at 0.4 µM
STA-4783: CN(NC(=O)CC(=O)NN(C)C(=S)c1ccccc1)C(=S)c1ccccc1 at 0.03 µM
perifosine: CCCCCCCCCCCCCCCCCCOP(=O)([O-])OC1CC[N+](C)(C)CC1 at 2 µM
OSU-03012: NCC(=O)Nc1ccc(-n2nc(C(F)(F)F)cc2-c2ccc3c(ccc4ccccc43)c2)cc1 at 5 µM

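Human melanoma cell lines in 1,536-well plates were treated with two drugs together for 72 h, then fixed, stained and imaged. Values are the share of nuclei positive for cleaved PARP as a percentage of the same share in the DMSO control: 100 is the control level, higher means more apoptosis. Concentrations were fixed for each drug; these are the higher of two levels. The file gives one value for each pair and line, without errors, so small differences may be noise. Basal and induced levels differ widely between cell lines.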
Only some of the drugs and lines screened are listed, without regard to their results.

| # | Combination | LOX IMVI | SK-MEL-28 | G-361 | IST-MEL1 | A2058 | SK-MEL-30 | C32 | MEL-HO |
|---|---|---|---|---|---|---|---|---|---|
| 1 | nutlin-3 and perifosine | 118 | 118 | 57.3 | 134 | 180 | 184 | 66.2 | 93.8 |
| 2 | VX-702 and STA-4783 | 60.2 | 246 | 550 | 402 | 1330 | 208 | 4010 | 92.6 |
| 3 | PF-562271 and XAV939 | 86.6 | 55.4 | 113 | 136 | 145 | 95.2 | 101 | 92.8 |
| 4 | PF-562271 and lenalidomide | 130 | 266 | 89.4 | 70.0 | 163 | 49.1 | 336 | 159 |
| 5 | VX-702 and XAV939 | 33.2 | 91.8 | 24.2 | 91.9 | 45.1 | 104 | 76.2 | 176 |
| 6 | STA-4783 and OSU-03012 | 279 | 840 | 220 | 194 | 1460 | 761 | 1390 | 113 |
| 7 | STA-4783 and PF-562271 | 98.3 | 271 | 424 | 202 | 3010 | 110 | 2260 | 176 |
| 8 | XAV939 and lenalidomide | 92.3 | 139 | 166 | 59.1 | 85.4 | 119 | 98.7 | 51.1 |
| 9 | tipifarnib and perifosine | 52.0 | 98.0 | 130 | 253 | 377 | 72.3 | 156 | 150 |
| 10 | PLX4720 and XAV939 | 82.6 | 214 | 174 | 130 | 126 | 84.7 | 89.9 | 51.3 |
| 11 | PF-562271 and OSU-03012 | 92.7 | 270 | 159 | 124 | 205 | 418 | 693 | 113 |
| 12 | lenalidomide and perifosine | 129 | 222 | 59.8 | 97.5 | 186 | 78.5 | 204 | 150 |
| 13 | tipifarnib and PLX4720 | 271 | 93.2 | 196 | 139 | 79.8 | 48.4 | 65.9 | 88.6 |
| 14 | tipifarnib and lenalidomide | 135 | 123 | 65.8 | 22.9 | 174 | 72.3 | 201 | 77.5 |
| 15 | perifosine and STA-4783 | 96.7 | 172 | 345 | 423 | 1270 | 104 | 4710 | 70.0 |
| 16 | PLX4720 and nutlin-3 | 140 | 89.2 | 148 | 99.3 | 106 | 144 | 168 | 189 |
| 17 | STA-4783 and PLX4720 | 70.7 | 814 | 935 | 689 | 2970 | 310 | 2330 | 45.4 |
| 18 | tipifarnib and VX-702 | 82.4 | 98.9 | 82.9 | 161 | 141 | 73.4 | 55.0 | 112 |
| 19 | XAV939 and STA-4783 | 80.1 | 306 | 285 | 370 | 2910 | 130 | 314 | 129 |
| 20 | lenalidomide and OSU-03012 | 32.3 | 716 | 388 | 110 | 90.7 | 1020 | 75.7 | 77.5 |
| 21 | perifosine and PLX4720 | 98.9 | 145 | 220 | 68.7 | 76.7 | 181 | 90.7 | 89.4 |
| 22 | PF-562271 and perifosine | 99.1 | 84.6 | 78.0 | 48.6 | 254 | 233 | 228 | 255 |
| 23 | XAV939 and nutlin-3 | 133 | 170 | 89.2 | 37.0 | 77.9 | 165 | 93.6 | 76.0 |
| 24 | VX-702 and lenalidomide | 65.0 | 69.5 | 71.9 | 121 | 113 | 38.3 | 203 | 154 |
| 25 | OSU-03012 and perifosine | 308 | 461 | 131 | 192 | 172 | 1190 | 521 | 98.3 |
| 26 | VX-702 and PF-562271 | 194 | 108 | 92.8 | 339 | 198 | 124 | 381 | 44.8 |

Some entries from above, unchanged:

| Combination | LOX IMVI | SK-MEL-28 | G-361 | IST-MEL1 | A2058 | SK-MEL-30 | C32 | MEL-HO |
|---|---|---|---|---|---|---|---|---|
| OSU-03012 and perifosine | 308 | 461 | 131 | 192 | 172 | 1190 | 521 | 98.3 |
| VX-702 and STA-4783 | 60.2 | 246 | 550 | 402 | 1330 | 208 | 4010 | 92.6 |

Source: doi:10.1371/journal.pone.0140310, primary screening data, rounded.